In PubChem BioAssay AID504834 (National Center for Advancing Translational Sciences (NCATS), 2011):
Out of some 320,000 compounds screened, about 22,000 (6.9%) were called active. Inconclusive results, whose numbers are uncertain, are shown with a selection of clear calls. Calls come from the whole dose curve; as a rule, active = well fitted inhibition curve with a large enough effect; inconclusive = small, poorly fitted or top-dose-only effect, or another doubt; inactive = no such curve, though single readings can be large or run the other way. Potencies beside an inconclusive call are fits to weak or partial responses and may not hold up.

Experiment: Primary qHTS for delayed death inhibitors of the malarial parasite plastid, 96 hour incubation
Details: P. falciparum luciferase reporter growth; series mostly up to 28.7 µM
Method in brief: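 P. falciparum expressing integrated firefly luciferase grown in erythrocytes (2% hematocrit, 0.05% parasitemia final) with compounds for 96 hours at 37 C, 5% CO2. Growth inhibition read as loss of luminescence after adding luciferase detection reagent.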
Potency is the fitted concentration of half-maximal effect.

| Structure (SMILES) | Potency |
| --- | --- |
| CC(CC1CC(C)(C)OC1=O)C(=O)Nc1nncs1 (stereo not drawn) | inconclusive: 11.7 µM [inhibitor, single point] |
| OC(c1ccccc1)c1cccnc1 (stereo not drawn) | inactive |
| O=C(/C=C/c1ccc(F)cc1)NCCCN1CCN(CCCNC(=O)/C=C/c2ccc(F)cc2)CC1 | inconclusive: 3.29 µM [inhibitor, full curve] |
| COC(=O)Cn1c(CCC(=O)O)ccc1-c1ccccc1 | active: 8.28 µM |
| Cc1ccccc1C([O-])=Nc1ccc[n+](-c2nc3ccccc3nc2NS(=O)(=O)c2ccccc2)c1 | active: 11.7 µM |
| CCCCOC(=O)Nc1ccc(S(=O)(=O)Nc2ncccn2)cc1 | inactive |
| O=C(C[n+]1ccc2ccccc2c1)c1ccccc1 | active: 9.28 µM |
| NC12CC3CC(C1)CC(O)(C3)C2 | active: 10.4 µM |
| Fc1ccccc1CNC(=S)NC1CCCCC1 | active: 4.15 µM |
| COCCn1c(C)cc(/C=C(\C#N)C(=O)OCC(=O)Nc2ccc(S(N)(=O)=O)cc2)c1C | inconclusive: 1.17 µM [inhibitor, full curve] |
| Nc1ccccc1C(=O)N=Nc1[nH]c(N)c2ccccc12 | inconclusive: 20.8 µM [inhibitor, partial curve, poor fit] |
| CC(Oc1ccc(Br)cc1)C(=O)NCc1ccccn1 (stereo not drawn) | inactive |
| CCC(C)c1ccc(S(=O)(=O)N2CCN(C(=O)COc3ccc4c(C)cc(=O)oc4c3)CC2)cc1 (stereo not drawn) | inconclusive: 11.7 µM [inhibitor, partial curve, poor fit] |
| COCCCNC(=O)C1CC(=O)N(C2CCCC2)C1 (stereo not drawn) | active: 10.4 µM |
| Cc1ccc(C(=O)COC(=O)c2cnccn2)cc1[N+](=O)[O-] | inconclusive: 18.5 µM [inhibitor, single point] |
| Cc1ccccc1/C=C\c1nc(O)c([N+](=O)[O-])c(=O)[nH]1 | inconclusive: 3.7 µM [inhibitor, partial curve] |
| Cc1ccccc1Nc1nnc(SCC(=O)NCc2cccs2)s1 | inconclusive: 5.22 µM [inhibitor, partial curve, poor fit] |
| Cc1cc2ncc(S(C)(=O)=O)c(N)n2n1 | inactive |
| CC(=O)Nc1nc(-c2ccccc2)ns1 | inactive |
| O=C(CSc1nnc(Cc2cc(=O)[nH]c(=O)[nH]2)n1-c1ccccc1)N1CCCCC1 | inconclusive: 18.5 µM [inhibitor, partial curve] |
| COC(=O)C(NC(=O)c1ccccc1)=C(C)C | active: 4.15 µM |
| COc1cc2c(cc1OC)CN(c1ccc([N+](=O)[O-])cc1C#N)CC2 | active: 14.7 µM |
| CCOc1ccc(-n2c(-c3ccco3)n[nH]c2=S)cc1 | inconclusive: 0.147 µM [inhibitor, full curve, poor fit] |
| CCCn1c2ccccc2c2cnn(CC(=O)NC3CCCC(C)C3C)c(=O)c21 (stereo not drawn) | inconclusive: 16.5 µM [inhibitor, single point] |
| Cc1ccc(NS(=O)(=O)c2cc(C(=O)N(C)C)ccc2C)cc1C | inactive |

| Structure (SMILES) | Potency |
| --- | --- |
| CCN(Cc1ccncc1)C(=O)c1ccccc1NS(=O)(=O)c1ccc(Br)cc1 | inconclusive: 13.1 µM [inhibitor, partial curve, poor fit] |
| CC1(C(=O)NCc2cc(F)cc(C(F)(F)F)c2)C=CC2(CCCCC2)N1C(=O)c1ccccc1 (stereo not drawn) | inconclusive: 18.5 µM [inhibitor, single point] |
| COc1cc(/C=C2\C(=N)N3N=C(CC(=O)N4CCOCC4)SC3=NC2=O)cc(OC)c1OC | inconclusive: 18.5 µM [inhibitor, single point] |
| Cc1ccc(Nc2nc3nonc3[nH]c2=O)cc1C | active: 5.22 µM |
| Cc1nc2ccccn2c1C(=O)/C=C/c1cccc([N+](=O)[O-])c1 | inconclusive: 0.147 µM [inhibitor, full curve] |
| Cc1c(N)cc(N)cc1C(=O)O | inactive |
| CC(C)C(c1nnnn1CCc1ccccc1)N1CCC(C(N)=O)CC1 (stereo not drawn) | inactive |
| Cc1ccccc1C(=O)c1cccn1CC(=O)NCc1ccc2c(c1)OCO2 | inconclusive: 3.7 µM [inhibitor, full curve, poor fit] |
| COc1ccc(S(=O)(=O)Nc2cccc(S(=O)(=O)N3CCCC3)c2)cc1OC | inactive |
| Cc1cccc(Nc2nc(NCc3ccco3)c3ccccc3n2)c1 | inconclusive: 10.4 µM [inhibitor, single point] |
| Oc1ccc2ccccc2c1C=NC1CCCCC1 | inconclusive: 5.86 µM [inhibitor, partial curve, poor fit] |
| COCCNC(=O)c1cn(C)c2ccc(S(=O)(=O)N(C)C3CCCCC3)cc2c1=O | inconclusive: 10.4 µM [inhibitor, partial curve, poor fit] |
| CCc1nc(N2CCN(C(=O)c3ccco3)CC2)c(C#N)c2c1COC(C)(C)C2 | inconclusive: 7.38 µM [inhibitor, partial curve] |
| Cc1csc(NC(=O)c2cccc(S(=O)(=O)N3CCCCC3)c2)n1 | inconclusive: 13.1 µM [inhibitor, partial curve] |
| CCCCCCCCc1nc(SC(C)C(=O)O)n[nH]1 (stereo not drawn) | inconclusive: 0.586 µM [inhibitor, full curve] |
| O=C(/C=C/c1ccc(F)cc1)NC(=S)NNC(=O)c1cnccn1 | active: 8.28 µM |
| NC(=O)c1ccccc1N/C=C1\CCCCC1=O | inconclusive: 0.586 µM [inhibitor, full curve, poor fit] |
| CC(=O)Nc1ccc(-c2cn3cc(C)ccc3n2)cc1 | inactive |
| COc1cc(C2=Nc3ccc(Br)cc3C(c3ccccc3)N2CC(=O)NN)cc(OC)c1OC (stereo not drawn) | inconclusive: 3.7 µM [inhibitor, partial curve, poor fit] |
| CCc1ccccc1NC(=O)CCc1nc(-c2cccs2)no1 | inconclusive: 18.5 µM [inhibitor, single point] |
| COC(=O)CSc1nc(C)cc(C)n1 | inconclusive: 0.522 µM [inhibitor, full curve, poor fit] |
| CN(CC(=O)NCc1ccco1)S(=O)(=O)c1ccc2c(c1)c(=O)n(C)c(=O)n2C | inactive |
| CC(C)c1ccc(Nc2nc(Cl)nc(NCCO)n2)cc1 | inconclusive: 11.7 µM [inhibitor, single point] |
| CCN1CCN(C(=O)CCc2ccc(S(=O)(=O)NCCc3ccccc3)cc2)CC1 | inconclusive: 14.7 µM [inhibitor, partial curve, poor fit] |
| CN(C(=O)c1ccc(S(=O)(=O)c2cccc(Cl)c2)c([N+](=O)[O-])c1)C1CCCCC1 | inconclusive: 20.8 µM [inhibitor, partial curve, poor fit] |

| Structure (SMILES) | Potency |
| --- | --- |
| O=C(C1CCN(S(=O)(=O)c2c(Cl)cccc2Cl)CC1)N1CCCCCCC1 | inconclusive: 18.5 µM [inhibitor, single point] |
| Cc1nc(-c2ccccc2)sc1-c1nc(-c2ccncc2)ncc1S(=O)(=O)c1ccccc1 | active: 1.65 µM |
| O=C(CSc1ccccn1)Nc1nncs1 | inactive |
| O=C(NNC(=O)c1cccs1)c1cccc(F)c1 | inconclusive: 2.33 µM [inhibitor, full curve, poor fit] |
| O=C(c1ccccc1)C1CCCN(Cc2nc(-c3cnccn3)no2)C1 (stereo not drawn) | active: 5.22 µM |
| CN(C)C(=O)c1ccc2c(c1)C1C3CCC(C3)C1C(c1ccccc1)N2 (stereo not drawn) | inconclusive: 10.4 µM [inhibitor, single point] |
| CCN(CC)CCCn1c2c(c(SCC(=O)Nc3ccc4c(c3)OCCO4)nc1=O)CCC2 | inconclusive: 18.5 µM [inhibitor, single point] |
| O=C(N/N=C/C=C/c1ccco1)c1cccc([N+](=O)[O-])c1 | inconclusive: 8.28 µM [inhibitor, partial curve] |
| COC(=O)Cc1ccc(NC(=O)c2ccc(C)c(C)c2)cc1 | inconclusive: 5.86 µM [inhibitor, partial curve] |
| COc1cccc(C(=O)NNC(=O)C2CCCO2)c1 (stereo not drawn) | inconclusive: 4.15 µM [inhibitor, partial curve, poor fit] |
| CCOc1ccccc1N(CC(=O)Nc1c(C)n(C)n(-c2ccccc2)c1=O)S(=O)(=O)c1ccccc1 | inconclusive: 8.28 µM [inhibitor, single point] |
| CCN(CC)CCNC(=O)C1c2ccccc2Oc2ccccc21 | inactive |
| CN(C)S(=O)(=O)c1cccc(NC(=S)Nc2cccc3cnccc23)c1 | active: 3.7 µM |
| COc1ccc2nc(NNC(=O)C3COc4ccccc4O3)sc2c1 (stereo not drawn) | inactive |
| COc1ccccc1OCCNC(=O)CC(NC(C)=O)c1ccccc1 (stereo not drawn) | inconclusive: 18.5 µM [inhibitor, single point] |
| COc1ccc(Nc2nnc(-c3ccncc3)s2)cc1Cl | inconclusive: 2.62 µM [inhibitor, full curve] |
| O=C(/C=C/c1ccc([N+](=O)[O-])s1)N1CCN(c2ccccc2)CC1 | inconclusive: 18.5 µM [inhibitor, partial curve, poor fit] |
| O=C(CSc1nnc(CNC(=O)c2c(F)cccc2Cl)o1)NCc1ccccc1 | inactive |
| O=C1ON=C(c2ccc([N+](=O)[O-])cc2)/C1=C/c1ccccc1O | inactive |
| Fc1ccc(/C=N/Nc2cc(N3CCOCC3)ncn2)cc1 | inconclusive: 18.5 µM [inhibitor, single point] |
| COc1ccccc1NC(=S)N1CCC(C(=O)c2ccc(F)cc2)CC1 | inconclusive: 18.5 µM [inhibitor, partial curve, poor fit] |
| Oc1ccc(CN2CCN(c3ccccc3)CC2)c2cccnc12 | inactive |
| Cc1ccc2c(NC(=S)NC(=O)c3ccccc3)cccc2n1 | inactive |

Three consecutive compounds from above, quoted:

| Structure (SMILES) | Potency |
| --- | --- |
| OC(c1ccccc1)c1cccnc1 (stereo not drawn) | inactive |
| O=C(/C=C/c1ccc(F)cc1)NCCCN1CCN(CCCNC(=O)/C=C/c2ccc(F)cc2)CC1 | inconclusive: 3.29 µM [inhibitor, full curve] |
| COC(=O)Cn1c(CCC(=O)O)ccc1-c1ccccc1 | active: 8.28 µM |
